Source: patent US20090092555A1 (published 2009)
Where a chain is given by its changes, count along the chain named. These are yes or no findings as the source states them, for the method shown. Some binding calls cover weakened binding; strength is not graded here. Values belong to the binder of their own block, whether it stands above or below them.

Protein sequences, listed by entry. Tags and fused reporters are not part of them. Lines headed by an entry give the natural chain unless they say otherwise; changes in a name come on top.
UniProt P06756: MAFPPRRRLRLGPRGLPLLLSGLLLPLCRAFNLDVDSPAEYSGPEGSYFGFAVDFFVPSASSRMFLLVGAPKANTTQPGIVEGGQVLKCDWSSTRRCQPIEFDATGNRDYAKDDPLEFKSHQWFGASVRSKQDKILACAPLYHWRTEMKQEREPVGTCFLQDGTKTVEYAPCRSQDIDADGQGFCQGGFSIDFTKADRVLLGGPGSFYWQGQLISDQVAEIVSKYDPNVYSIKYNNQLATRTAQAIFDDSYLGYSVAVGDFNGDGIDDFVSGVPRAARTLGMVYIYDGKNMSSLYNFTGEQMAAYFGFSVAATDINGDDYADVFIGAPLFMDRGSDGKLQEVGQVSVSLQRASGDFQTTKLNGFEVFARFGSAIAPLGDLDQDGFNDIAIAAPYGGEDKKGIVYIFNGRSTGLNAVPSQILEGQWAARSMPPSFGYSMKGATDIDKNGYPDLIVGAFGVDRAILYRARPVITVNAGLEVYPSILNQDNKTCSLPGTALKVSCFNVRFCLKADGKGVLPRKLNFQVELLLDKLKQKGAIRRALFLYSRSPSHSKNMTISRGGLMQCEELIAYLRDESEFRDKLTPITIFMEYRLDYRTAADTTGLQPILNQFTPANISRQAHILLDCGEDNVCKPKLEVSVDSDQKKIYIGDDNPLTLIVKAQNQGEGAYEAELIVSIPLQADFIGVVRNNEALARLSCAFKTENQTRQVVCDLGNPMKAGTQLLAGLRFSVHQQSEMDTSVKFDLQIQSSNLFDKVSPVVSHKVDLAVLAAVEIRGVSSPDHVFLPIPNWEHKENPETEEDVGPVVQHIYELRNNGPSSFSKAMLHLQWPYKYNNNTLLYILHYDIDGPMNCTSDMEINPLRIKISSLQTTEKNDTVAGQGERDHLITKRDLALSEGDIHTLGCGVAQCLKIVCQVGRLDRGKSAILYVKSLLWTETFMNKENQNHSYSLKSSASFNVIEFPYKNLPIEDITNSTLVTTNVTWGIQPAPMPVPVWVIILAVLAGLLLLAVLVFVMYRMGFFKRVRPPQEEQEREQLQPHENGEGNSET
UniProt P05106: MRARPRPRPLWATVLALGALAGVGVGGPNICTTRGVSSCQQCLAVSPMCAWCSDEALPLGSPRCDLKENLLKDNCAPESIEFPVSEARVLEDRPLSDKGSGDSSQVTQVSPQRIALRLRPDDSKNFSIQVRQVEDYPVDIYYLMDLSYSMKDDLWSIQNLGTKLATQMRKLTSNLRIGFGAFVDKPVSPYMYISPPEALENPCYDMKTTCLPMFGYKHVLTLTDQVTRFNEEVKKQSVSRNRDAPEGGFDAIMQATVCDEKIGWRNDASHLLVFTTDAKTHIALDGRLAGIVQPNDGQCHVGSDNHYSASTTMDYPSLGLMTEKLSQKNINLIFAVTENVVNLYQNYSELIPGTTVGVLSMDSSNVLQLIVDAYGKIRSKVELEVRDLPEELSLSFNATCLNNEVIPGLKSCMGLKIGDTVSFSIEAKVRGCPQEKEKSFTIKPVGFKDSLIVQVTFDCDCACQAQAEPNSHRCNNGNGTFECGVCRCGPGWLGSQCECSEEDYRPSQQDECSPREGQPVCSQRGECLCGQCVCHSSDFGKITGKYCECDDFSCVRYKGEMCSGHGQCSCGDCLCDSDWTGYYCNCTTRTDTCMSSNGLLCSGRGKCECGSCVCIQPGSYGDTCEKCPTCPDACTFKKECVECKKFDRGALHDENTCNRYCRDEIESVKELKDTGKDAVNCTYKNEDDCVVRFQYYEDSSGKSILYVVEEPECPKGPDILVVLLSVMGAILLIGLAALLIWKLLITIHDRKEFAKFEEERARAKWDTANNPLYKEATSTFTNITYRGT

Biological target: v3 integrin (alpha-v beta-3; the Greek letters are lost in the filing's text) on Calu-3 human lung carcinoma cells (human) (UniProt P06756+P05106)
Test: fluorescence microscopy of the Alexa-Fluor 488 labeled mutant on Calu-3 cells expressing v3 integrin

binding: binds
B1: GKE-RGD PlyCB mutant (RGD substituted for G22K23E24 of PlyCB), octamer (designed binder)
chain: SKINVNVENVSGVQGFLFHTDRGDSYGYRAFINGVEIGIKDIETVQGFQQIIPSINISKSDVEAIRKAMKK
modifications: cross-linked with Alexa-Fluor 488 (sites not given)

binding: binds
B2: KES-RGD PlyCB mutant (RGD substituted for K23E24S25 of PlyCB), octamer (designed binder)
chain: B1 chain with R22G, G23R, D24G, S25D
modifications: cross-linked with Alexa-Fluor 488 (sites not given)
